Assay results taken from publication PMC5742726.
No constants are given. Whether binding was seen depends on the method and setting. In cells and extracts the contact can be indirect. Some entries that bind do so weakly or less than the wild type.

Protein sequences, listed by entry. Tags and fused reporters are not part of them. Lines headed by an entry give the natural chain unless they say otherwise; changes in a name come on top. Chains listed by the source or under a name are the forms on record and can include a tag or linker.
UniProt P46938: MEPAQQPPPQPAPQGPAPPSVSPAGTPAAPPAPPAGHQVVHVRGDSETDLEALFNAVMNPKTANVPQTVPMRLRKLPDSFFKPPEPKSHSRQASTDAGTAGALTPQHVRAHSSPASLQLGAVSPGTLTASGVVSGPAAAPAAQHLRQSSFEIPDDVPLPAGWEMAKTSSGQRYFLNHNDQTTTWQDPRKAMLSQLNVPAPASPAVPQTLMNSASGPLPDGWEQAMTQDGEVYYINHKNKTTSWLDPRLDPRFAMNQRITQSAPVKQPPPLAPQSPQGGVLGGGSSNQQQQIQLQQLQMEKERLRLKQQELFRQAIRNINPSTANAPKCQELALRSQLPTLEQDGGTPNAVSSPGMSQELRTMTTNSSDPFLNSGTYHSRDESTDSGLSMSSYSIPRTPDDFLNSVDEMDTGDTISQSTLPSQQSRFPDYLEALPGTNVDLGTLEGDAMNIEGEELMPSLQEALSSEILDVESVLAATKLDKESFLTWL
cAMP response element‐binding protein (CREB), endogenous in N2a cells (total CREB) (Q01147-1, form named): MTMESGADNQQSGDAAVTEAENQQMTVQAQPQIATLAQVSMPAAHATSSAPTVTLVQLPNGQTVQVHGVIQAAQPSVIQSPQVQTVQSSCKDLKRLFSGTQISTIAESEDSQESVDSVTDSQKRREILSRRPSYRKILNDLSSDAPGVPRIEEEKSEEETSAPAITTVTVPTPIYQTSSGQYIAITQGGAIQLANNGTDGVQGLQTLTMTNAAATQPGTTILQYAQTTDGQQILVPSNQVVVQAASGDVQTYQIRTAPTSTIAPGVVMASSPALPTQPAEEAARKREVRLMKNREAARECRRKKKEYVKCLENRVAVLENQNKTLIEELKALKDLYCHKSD

Tests used:
[1] = biological target: Yes‐associated protein (YAP), endogenous in N2a cells (mouse (endogenous in N2a)) (UniProt P46938); assay: co-IP; IP of endogenous YAP from nuclear extracts of RA-treated N2a cells, antibody cross-linked to protein A beads, 4°C overnight, washed with 0.1% Triton X-100 PBS; Western blot for YAP, CREB, p-CREB and GAPDH; IgG control IP
[2] = biological target: Yes‐associated protein (YAP), endogenous in N2a cells (mouse (endogenous in N2a)) (UniProt P46938); assay: proximity ligation; Duolink PLA on fixed, permeabilised N2a cells treated with RA; mouse anti-YAP and rabbit anti-CREB antibodies; endogenous proteins
[3] = biological target: FLAG‐tagged full‐length YAP (UniProt P46938); assay: co-IP; FLAG IP from N2a cells transfected with FLAG-tagged full-length, N-terminally or C-terminally deleted YAP; Western blot for CREB

Row | binding [1] | binding [2] | binding [3] | Substance
1 | binds |  |  | phosphorylated CREB (p‐CREB), endogenous in N2a cells (from UniProt Q01147-1 1-341)
2 | binds | binds | binds | cAMP response element‐binding protein (CREB), endogenous in N2a cells (total CREB) (from UniProt Q01147-1 1-341)
